No constants are given. Whether binding was seen depends on the method and setting. Binding seen in cells or lysates may run through a third protein. Some results given as binding are weak or reduced against the parent protein; the word gives no strength. For some assays here: Tags and fused reporters may be left off the sequences shown.
Columns and labels:
[1] = target: myc-RCC2 (wild-type RCC2) (human) (UniProt Q9P258); test: co-IP; exogenous co-IP of transfected proteins; lysate in Co-IP buffer, overnight at 4 °C with specific antibodies and protein A/G magnetic beads, five washes, Western blot; some panels with or without 50 mM NaLa or KAT2A overexpression
[2] = target: T1, Flag-SERBP1 (full-length, exogenous) (UniProt Q8NC51); test: as above
T1 sequence: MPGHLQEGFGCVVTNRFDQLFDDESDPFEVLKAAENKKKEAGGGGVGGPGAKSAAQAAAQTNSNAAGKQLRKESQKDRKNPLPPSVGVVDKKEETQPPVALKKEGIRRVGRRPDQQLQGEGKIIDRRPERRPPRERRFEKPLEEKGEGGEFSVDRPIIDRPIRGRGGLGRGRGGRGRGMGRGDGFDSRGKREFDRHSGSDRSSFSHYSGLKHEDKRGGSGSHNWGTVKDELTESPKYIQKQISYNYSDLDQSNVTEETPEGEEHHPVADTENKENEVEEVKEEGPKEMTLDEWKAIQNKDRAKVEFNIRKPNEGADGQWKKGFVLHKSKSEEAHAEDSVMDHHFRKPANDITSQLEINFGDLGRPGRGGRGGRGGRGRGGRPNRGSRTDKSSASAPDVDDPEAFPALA

The chains behind the UniProt entries cited, without tags or fusion partners.
UniProt Q9P258: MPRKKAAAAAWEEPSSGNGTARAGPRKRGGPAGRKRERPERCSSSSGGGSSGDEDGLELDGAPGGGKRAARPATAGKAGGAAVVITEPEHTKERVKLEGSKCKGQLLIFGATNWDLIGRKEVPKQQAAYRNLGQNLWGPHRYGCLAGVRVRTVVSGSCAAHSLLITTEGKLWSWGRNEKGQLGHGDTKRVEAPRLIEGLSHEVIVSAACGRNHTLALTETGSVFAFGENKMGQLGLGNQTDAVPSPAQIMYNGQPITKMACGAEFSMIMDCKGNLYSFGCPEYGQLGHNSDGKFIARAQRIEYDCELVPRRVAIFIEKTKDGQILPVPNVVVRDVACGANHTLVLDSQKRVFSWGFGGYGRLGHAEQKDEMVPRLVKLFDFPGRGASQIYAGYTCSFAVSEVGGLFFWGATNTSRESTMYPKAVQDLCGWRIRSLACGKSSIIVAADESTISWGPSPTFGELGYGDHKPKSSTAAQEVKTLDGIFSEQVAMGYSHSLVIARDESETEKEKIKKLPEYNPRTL
UniProt Q92830: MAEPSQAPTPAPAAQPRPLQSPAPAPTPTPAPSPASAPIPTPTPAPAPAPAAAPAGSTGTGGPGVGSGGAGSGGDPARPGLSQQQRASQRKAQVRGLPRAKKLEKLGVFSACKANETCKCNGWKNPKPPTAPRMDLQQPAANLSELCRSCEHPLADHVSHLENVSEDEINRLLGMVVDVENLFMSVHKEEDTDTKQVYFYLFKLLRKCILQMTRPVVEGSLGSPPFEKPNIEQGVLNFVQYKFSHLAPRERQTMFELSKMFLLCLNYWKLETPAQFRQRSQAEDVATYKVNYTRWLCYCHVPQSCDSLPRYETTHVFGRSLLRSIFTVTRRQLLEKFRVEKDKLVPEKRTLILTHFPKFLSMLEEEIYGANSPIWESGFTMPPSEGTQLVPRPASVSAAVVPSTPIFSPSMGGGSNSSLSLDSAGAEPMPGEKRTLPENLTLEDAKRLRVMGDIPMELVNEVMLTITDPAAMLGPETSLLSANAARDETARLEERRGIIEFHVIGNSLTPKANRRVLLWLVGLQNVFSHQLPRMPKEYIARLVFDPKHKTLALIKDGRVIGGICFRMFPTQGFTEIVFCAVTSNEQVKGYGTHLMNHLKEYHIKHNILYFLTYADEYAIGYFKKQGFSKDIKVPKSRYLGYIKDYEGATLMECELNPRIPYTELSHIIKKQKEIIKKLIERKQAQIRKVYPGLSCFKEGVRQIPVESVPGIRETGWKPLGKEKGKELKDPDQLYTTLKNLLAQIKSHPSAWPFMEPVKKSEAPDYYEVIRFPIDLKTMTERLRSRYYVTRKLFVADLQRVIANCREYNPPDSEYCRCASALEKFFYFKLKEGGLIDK

| Substance | binding [1] | binding [2] |
| --- | --- | --- |
| KAT2A (exogenous) (from UniProt Q92830 1-837) (enzyme) | binds |  |
| myc-RCC2 (wild-type RCC2) (from UniProt Q9P258 1-522) |  | binds |
